“Also recorded” adds a separate entry of the source. Not every detail of the peptide structures is certain; ends, links or a residue may be inferred. Some entries repeat one wording, which the source may state once for all of them. Where no end group is shown, it is not given here.
Target: RNA polymerase-RNA complex ("cores" with transcriptase activity) (Influenza A virus, UniProt P03428+P03431+P03433)
Format: biochemical, Influenza virus A/PR/8/34

Chains of the proteins cited; added tags and fusions are not shown. Lines headed by an entry give the natural chain unless they say otherwise; changes in a name come on top.
UniProt P03428: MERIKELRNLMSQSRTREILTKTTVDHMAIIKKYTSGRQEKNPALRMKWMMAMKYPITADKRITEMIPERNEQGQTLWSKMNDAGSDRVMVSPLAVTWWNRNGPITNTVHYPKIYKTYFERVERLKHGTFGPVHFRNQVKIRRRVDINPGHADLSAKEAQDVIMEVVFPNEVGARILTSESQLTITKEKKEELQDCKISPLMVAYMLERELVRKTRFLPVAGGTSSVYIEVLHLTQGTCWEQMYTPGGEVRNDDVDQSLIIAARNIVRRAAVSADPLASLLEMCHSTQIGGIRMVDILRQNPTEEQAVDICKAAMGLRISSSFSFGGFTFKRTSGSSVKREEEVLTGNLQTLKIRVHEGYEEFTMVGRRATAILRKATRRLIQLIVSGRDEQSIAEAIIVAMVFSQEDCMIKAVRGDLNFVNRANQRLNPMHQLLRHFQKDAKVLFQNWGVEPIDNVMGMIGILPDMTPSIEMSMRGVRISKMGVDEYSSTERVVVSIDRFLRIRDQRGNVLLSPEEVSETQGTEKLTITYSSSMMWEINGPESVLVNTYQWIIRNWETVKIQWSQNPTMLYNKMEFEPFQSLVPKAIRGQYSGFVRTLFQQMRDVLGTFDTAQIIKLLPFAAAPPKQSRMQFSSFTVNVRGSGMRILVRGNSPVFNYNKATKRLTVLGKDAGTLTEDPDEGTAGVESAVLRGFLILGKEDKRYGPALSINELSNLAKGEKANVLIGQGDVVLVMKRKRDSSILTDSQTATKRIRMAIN
UniProt P03431: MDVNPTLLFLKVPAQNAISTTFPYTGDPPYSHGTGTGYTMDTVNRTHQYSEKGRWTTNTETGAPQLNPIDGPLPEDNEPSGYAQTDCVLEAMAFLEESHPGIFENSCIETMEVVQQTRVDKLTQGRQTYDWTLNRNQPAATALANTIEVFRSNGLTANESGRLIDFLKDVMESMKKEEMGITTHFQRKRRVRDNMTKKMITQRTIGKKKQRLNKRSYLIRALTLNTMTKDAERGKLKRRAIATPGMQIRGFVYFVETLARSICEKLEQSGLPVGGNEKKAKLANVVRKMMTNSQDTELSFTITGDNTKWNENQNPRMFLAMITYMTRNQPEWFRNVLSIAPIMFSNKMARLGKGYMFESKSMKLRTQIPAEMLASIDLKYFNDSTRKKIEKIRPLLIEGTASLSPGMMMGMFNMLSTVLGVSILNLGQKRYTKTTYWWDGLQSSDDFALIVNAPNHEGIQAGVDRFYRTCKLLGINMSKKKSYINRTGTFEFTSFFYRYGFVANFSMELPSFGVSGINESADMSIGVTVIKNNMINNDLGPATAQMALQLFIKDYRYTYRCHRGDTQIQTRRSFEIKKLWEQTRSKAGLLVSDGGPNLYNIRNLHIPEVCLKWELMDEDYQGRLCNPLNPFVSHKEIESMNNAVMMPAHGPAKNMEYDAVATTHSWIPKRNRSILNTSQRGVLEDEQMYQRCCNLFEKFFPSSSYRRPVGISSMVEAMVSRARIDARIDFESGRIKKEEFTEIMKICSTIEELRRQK

CSCC[C@H](NC(=O)[C@H](CC(N)=O)NC(=O)[C@H](CC(N)=O)NC(=O)[C@@H]1CCCN1C(=O)[C@H](CC(=O)O)NC(=O)CNC(=O)[C@H](CC(N)=O)NC(=O)CNC(=O)[C@H](CC(N)=O)NC(=O)[C@H](CC(C)C)NC(=O)[C@H](C)N)C(=O)N[C@@H](CC(=O)O)C(=O)N[C@@H](CCCCN)C(=O)N[C@@H](C)C(=O)N[C@H](C(=O)N[C@@H](CCCCN)C(=O)N[C@@H](CC(C)C)C(=O)N[C@@H](Cc1ccc(O)cc1)C(=O)O)C(C)C [Peptide 2] was tested, and the “effect on polymerase activity (in words)” value was “enhancement of polymerase activity”.

CC(C)C[C@H](NC(=O)CNC(=O)[C@H](C)NC(=O)[C@H](CO)NC(=O)[C@H](CO)NC(=O)[C@H](CO)NC(=O)[C@@H]1CCCN1C(=O)[C@H](Cc1c[nH]cn1)NC(=O)[C@@H](NC(=O)CN)[C@@H](C)O)C(=O)N[C@@H](CCCCN)C(=O)N[C@@H](CC(N)=O)C(=O)N[C@@H](CC(=O)O)C(=O)N[C@@H](CC(C)C)C(=O)N[C@@H](CC(C)C)C(=O)N[C@@H](CCC(=O)O)C(=O)N[C@@H](CC(N)=O)C(=O)O [Peptide 5] was tested, and the “effect on polymerase activity (in words)” value was “enhancement of polymerase activity”.

CC[C@H](C)[C@H](NC(=O)[C@H](CCC(N)=O)NC(=O)[C@H](CCC(=O)O)NC(=O)[C@H](CS)NC(=O)[C@@H](NC(=O)[C@H](C)NC(=O)[C@@H](N)CS)[C@@H](C)O)C(=O)N[C@@H](C)C(=O)N[C@@H](CC(=O)O)C(=O)N[C@@H](CO)C(=O)N[C@@H](CCC(N)=O)C(=O)N[C@@H](Cc1c[nH]cn1)C(=O)N[C@@H](CCCNC(=N)N)C(=O)N[C@@H](CO)C(=O)N[C@@H](Cc1c[nH]cn1)C(=O)N[C@@H](CCCNC(=N)N)C(=O)N[C@@H](CCC(N)=O)C(=O)N[C@@H](CCSC)C(=O)N[C@H](C(=O)O)C(C)C [Peptide 6] was tested, and the “activity as inhibitor of viral transcription (in words, compared with M1 protein)” value was “unexpectedly high activity; also recorded: much more active than the M1 protein itself”.

For KREITFHGAKEISLS [Peptide 3], the “effect on polymerase activity (in words)” value was “enhancement of polymerase activity”.

Source: patent US5616327A (SRI International, priority 1994, dated 1997)
